Measurements published in PubChem BioAssay AID248 (DTP/NCI, 2004).
The list is a part of this screen's results and no random one: it is rich in T/C values a quarter to a half above the control, in often repeated tests (any T/C) and in doses without a T/C. Other doses and runs of a compound stand elsewhere. T/C gives the treated animals as a percentage of the vehicle group. Some entries give survivors of the animals treated and no T/C: the source files T/C as zero there, which appears to mark a toxic dose or a test without result, not a measured value. Some doses without a T/C left all or most animals alive at the check, yet need not have been tolerated: survival well below the control is almost never listed, so the zero probably covers shortened survival too. Survivors were counted at the toxicity check, usually on the fifth day, unless a day is given; later deaths do not show. Schedule codes are those of the source, read here as Q, the interval in days (D) or hours (H), X, the number of doses. Some schedules carry Z or #; the key to these is not given. Some doses were run more than once; the results are listed from low to high. For survival time, the PubChem record calls one and a half times the control and up active, and a quarter to a half above the control has no call in these data; cut-offs in other NCI protocols can differ. Some T/C values carry the count of animals alive at the toxicity check (mostly the fifth day); where none is given, no animal had died by that day.

System: L1210 leukemia ip in BDF1 mice, survival T/C
Assay: NCI In Vivo Anticancer Drug Screen. Data for tumor model L1210 Leukemia (intraperitoneal) in B6D2F1 (BDF1) mice
Settings: T/C endpoint: mean survival time, higher T/C = longer survival
[1] = dose: 200.0 mg/kg/injection, schedule: Q01DX009 (ip), vehicle: water
[2] = dose: 400.0 mg/kg/injection, schedule: Q01DX009 (ip), vehicle: water
[3] = dose: 600.0 mg/kg/injection, schedule: Q01DX009 (ip), vehicle: water
[4] = dose: 750.0 mg/kg/injection, schedule: Q01DX Z (ip), vehicle: water
[5] = dose: 800.0 mg/kg/injection, schedule: Q01DX009 (ip), vehicle: water
[6] = dose: 150.0 mg/kg/injection, schedule: Q01DX001 (ip), vehicle: saline
[7] = dose: 300.0 mg/kg/injection, schedule: Q01DX001 (ip), vehicle: saline
[8] = dose: 400.0 mg/kg/injection, schedule: Q01DX009 (ip), vehicle: Klucel (hydroxypropylcellulose) (HPC)
[9] = dose: 400.0 mg/kg/injection, schedule: Q04DX003 (ip), vehicle: Klucel (hydroxypropylcellulose) (HPC)

With O=C(NO)c1ccncc1 the survivor count (dose: 200.0 mg/kg/injection, schedule: Q01DX005 (ip), vehicle: water) was 6 of 6, the survivor count (dose: 200.0 mg/kg/injection, schedule: Q01DX005 (iv), vehicle: water) was 1 of 6 and the T/C [1] was 101, 106, 107, 115 % of control. For the same compound, the survivor count [1] was 6 of 6, the survivor count (dose: 200.0 mg/kg/injection, schedule: Q02DX005 (ip), vehicle: water) was 6 of 6 and the T/C (dose: 267.0 mg/kg/injection, schedule: Q#B X027 (ip), vehicle: water) was 136 % of control. The T/C (dose: 300.0 mg/kg/injection, schedule: Q01DX009 (ip), vehicle: water) was 125 % of control, the T/C (dose: 335.0 mg/kg/injection, schedule: Q01DX Z (ip), vehicle: water) was 125 % of control and the survivor count (dose: 400.0 mg/kg/injection, schedule: Q01DX005 (ip), vehicle: water) was 2 of 6. For the same compound, the T/C [2] was 108, 110, 128, 135 % of control, the survivor count [2] was 6 of 6 and the T/C (dose: 400.0 mg/kg/injection, schedule: Q01DX015 (ip), vehicle: water) was 133 % of control. For the same compound, the T/C (dose: 400.0 mg/kg/injection, schedule: Q01DX Z (ip), vehicle: water) was 128 % of control [5 of 6 alive], the survivor count (dose: 400.0 mg/kg/injection, schedule: Q02DX005 (ip), vehicle: water) was 2 of 6 and the T/C (dose: 400.0 mg/kg/injection, schedule: Q02DX Z (ip), vehicle: water) was 126 % of control. For the same compound, the T/C (dose: 450.0 mg/kg/injection, schedule: Q01DX015 (ip), vehicle: water) was 143 % of control, the survivor count (dose: 500.0 mg/kg/injection, schedule: Q01DX005 (iv), vehicle: water) was 0 of 6 and the T/C (dose: 500.0 mg/kg/injection, schedule: Q01DX015 (ip), vehicle: water) was 136 % of control. The T/C (dose: 500.0 mg/kg/injection, schedule: Q01DX Z (ip), vehicle: water) was 106, 127, 131, 145, 149 % of control, the T/C (dose: 500.0 mg/kg/injection, schedule: Q02DX008 (ip), vehicle: water) was 126 % of control and the survivor count (dose: 600.0 mg/kg/injection, schedule: Q01DX005 (ip), vehicle: water) was 0 of 6. For the same compound, the T/C [3] was 108, 141, 153, 163, 165 % of control, the survivor count [3] was 0 of 6 and the T/C (dose: 600.0 mg/kg/injection, schedule: Q01DX015 (ip), vehicle: water) was 135 % of control. The T/C (dose: 600.0 mg/kg/injection, schedule: Q01DX Z (ip), vehicle: water) was 149 % of control, the survivor count (dose: 600.0 mg/kg/injection, schedule: Q02DX005 (ip), vehicle: water) was 1 of 6 and the T/C (dose: 700.0 mg/kg/injection, schedule: Q01DX015 (ip), vehicle: water) was 144 % of control. For the same compound, the survivor count (dose: 750.0 mg/kg/injection, schedule: Q01DX009 (im), vehicle: water) was 4 of 6, the survivor count (dose: 750.0 mg/kg/injection, schedule: Q01DX009 (sc), vehicle: water) was 2 of 6 and the T/C [4] was 134, 138 [5 of 6 alive], 140, 182 % of control. For the same compound, the survivor count [4] was 4 of 6, the survivor count (dose: 800.0 mg/kg/injection, schedule: Q01DX005 (ip), vehicle: water) was 0 of 6 and the T/C [5] was 98 [5 of 6 alive], 152 [5 of 6 alive], 172 % of control. The survivor count [5] was 0 of 6, the survivor count (dose: 800.0 mg/kg/injection, schedule: Q01DX015 (ip), vehicle: water) was 3 of 6 and the survivor count (dose: 800.0 mg/kg/injection, schedule: Q02DX005 (ip), vehicle: water) was 0 of 6. For the same compound, the T/C (dose: 800.0 mg/kg/injection, schedule: Q02DX Z (ip), vehicle: water) was 134 % of control [5 of 6 alive], the survivor count (dose: 800.0 mg/kg/injection, schedule: Q04DX003 (ip), vehicle: water) was 5 of 6 and the survivor count (dose: 900.0 mg/kg/injection, schedule: Q01DX015 (ip), vehicle: water) was 0 of 6. The survivor count (dose: 1000.0 mg/kg/injection, schedule: Q01DX001 (ip), vehicle: water) was 0 of 6 and 1 of 4, the survivor count (dose: 1000.0 mg/kg/injection, schedule: Q01DX009 (im), vehicle: water) was 1 of 6 and the survivor count (dose: 1000.0 mg/kg/injection, schedule: Q01DX009 (sc), vehicle: water) was 2 of 6. For the same compound, the survivor count (dose: 1250.0 mg/kg/injection, schedule: Q01DX015 (im), vehicle: water) was 3 of 6, the survivor count (dose: 1400.0 mg/kg/injection, schedule: Q03DX005 (ip), vehicle: water) was 3 of 6 and the survivor count (dose: 1500.0 mg/kg/injection, schedule: Q01DX001 (ip), vehicle: water) was 0 of 4. For the same compound, the survivor count (dose: 1500.0 mg/kg/injection, schedule: Q01DX015 (oral), vehicle: water) was 3 of 6, the survivor count (dose: 2000.0 mg/kg/injection, schedule: Q01DX001 (ip), vehicle: water) was 0 of 4 and the survivor count (dose: 2000.0 mg/kg/injection, schedule: Q01DX015 (oral), vehicle: water) was 0 of 6.

For COC1=C2C[C@@H](C)C[C@@H](OC)[C@@H](O)[C@H](C)/C=C(\C)[C@@H](OC(N)=O)[C@H](OC)/C=C\C=C(/C)C(=O)NC(=CC1=O)C2=O, the survivor count (dose: 75.0 mg/kg/injection, schedule: Q01DX001 (ip), vehicle: saline) was 0 of 6, the survivor count [6] was 0 of 6 and the survivor count [7] was 0 of 6.

For O=C(Nc1ccc(O)cc1)Sc1ccccc1, the survivor count (dose: 150.0 mg/kg/injection, schedule: Q01DX001 (ip), vehicle: gum acacia) was 2 of 6 and the survivor count (dose: 300.0 mg/kg/injection, schedule: Q01DX001 (ip), vehicle: gum acacia) was 0 of 6.

In the case of CC1SCC(NC(=O)N(CCCl)N=O)CS1 (stereo unspecified), the T/C (dose: 40.0 mg/kg/injection, schedule: Q01DX001 (ip), vehicle: saline with Tween-80) is reported as 144 % of control, the survivor count (dose: 90.0 mg/kg/injection, schedule: Q01DX001 (ip), vehicle: saline with Tween-80) is reported as 9 of 10 and the survivor count (dose: 134.0 mg/kg/injection, schedule: Q01DX001 (ip), vehicle: saline with Tween-80) is reported as 3 of 10. The survivor count (dose: 200.0 mg/kg/injection, schedule: Q01DX001 (ip), vehicle: saline with Tween-80) was 2 of 10.

N#C/C(=N/O)c1ccccn1 was tested, and the survivor count [8] was 1 of 6.

With N=C(N)SCCCCCSC(=N)N the survivor count (dose: 400.0 mg/kg/injection, schedule: Q01DX001 (ip), vehicle: saline) was 0 of 4 and the survivor count (dose: 400.0 mg/kg/injection, schedule: Q04DX002 (ip), vehicle: saline) was 0 of 3.

CCOC(=O)NNC(=O)O was tested, and the survivor count (dose: 200.0 mg/kg/injection, schedule: Q01DX001 (ip), vehicle: carboxymethylcellulose (CMC)) was 0 of 4 and the survivor count (dose: 400.0 mg/kg/injection, schedule: Q01DX001 (ip), vehicle: carboxymethylcellulose (CMC)) was 0 of 4.

In the case of Nc1nc(Cc2cccc3ccccc23)nc(Cc2cccc3ccccc23)n1, the survivor count [9] is reported as 6 of 6.

With N#Cc1[nH]cnc1/N=N/N(CCF)CCF the survivor count (dose: 37.0 mg/kg/injection, schedule: Q01DX009 (ip), vehicle: saline with Tween-80) was 0 of 6 and the survivor count (dose: 75.0 mg/kg/injection, schedule: Q04DX003 (ip), vehicle: saline with Tween-80) was 1 of 6.

In the case of Cc1ncc(C(=O)Nc2ccccc2)[nH]1, the survivor count [8] is reported as 0 of 6 and the survivor count [9] is reported as 0 of 6.

With CCCC[N+](C)(CCCC)CCCC the survivor count [6] was 1 of 6 and the survivor count [7] was 0 of 6.

With O=S(=O)(NC1CCc2ccccc21)c1ccccc1 (stereo unspecified) the survivor count (dose: 400.0 mg/kg/injection, schedule: Q01DX009 (ip), vehicle: saline with Tween-80) was 6 of 6.

For Cc1ccccc1SC(=O)Nc1cccc(Cl)c1Cl, the survivor count [8] was 2 of 6.
